Experimental data published in paper PMC5921305.
Results are given in words; binding and its absence hold for the method and conditions named. For part of these data: Binding seen in cells or lysates may run through a third protein. Some results given as binding are weak or reduced against the parent protein; the word gives no strength. For part of these data: Tags and fused reporters may be left off the sequences shown.

The chains behind the UniProt entries cited, without tags or fusion partners. Where a name states a change or a piece, a line headed by the entry shows the natural chain unless it says otherwise. Residues count along the entry.
UniProt P70227, whole entry: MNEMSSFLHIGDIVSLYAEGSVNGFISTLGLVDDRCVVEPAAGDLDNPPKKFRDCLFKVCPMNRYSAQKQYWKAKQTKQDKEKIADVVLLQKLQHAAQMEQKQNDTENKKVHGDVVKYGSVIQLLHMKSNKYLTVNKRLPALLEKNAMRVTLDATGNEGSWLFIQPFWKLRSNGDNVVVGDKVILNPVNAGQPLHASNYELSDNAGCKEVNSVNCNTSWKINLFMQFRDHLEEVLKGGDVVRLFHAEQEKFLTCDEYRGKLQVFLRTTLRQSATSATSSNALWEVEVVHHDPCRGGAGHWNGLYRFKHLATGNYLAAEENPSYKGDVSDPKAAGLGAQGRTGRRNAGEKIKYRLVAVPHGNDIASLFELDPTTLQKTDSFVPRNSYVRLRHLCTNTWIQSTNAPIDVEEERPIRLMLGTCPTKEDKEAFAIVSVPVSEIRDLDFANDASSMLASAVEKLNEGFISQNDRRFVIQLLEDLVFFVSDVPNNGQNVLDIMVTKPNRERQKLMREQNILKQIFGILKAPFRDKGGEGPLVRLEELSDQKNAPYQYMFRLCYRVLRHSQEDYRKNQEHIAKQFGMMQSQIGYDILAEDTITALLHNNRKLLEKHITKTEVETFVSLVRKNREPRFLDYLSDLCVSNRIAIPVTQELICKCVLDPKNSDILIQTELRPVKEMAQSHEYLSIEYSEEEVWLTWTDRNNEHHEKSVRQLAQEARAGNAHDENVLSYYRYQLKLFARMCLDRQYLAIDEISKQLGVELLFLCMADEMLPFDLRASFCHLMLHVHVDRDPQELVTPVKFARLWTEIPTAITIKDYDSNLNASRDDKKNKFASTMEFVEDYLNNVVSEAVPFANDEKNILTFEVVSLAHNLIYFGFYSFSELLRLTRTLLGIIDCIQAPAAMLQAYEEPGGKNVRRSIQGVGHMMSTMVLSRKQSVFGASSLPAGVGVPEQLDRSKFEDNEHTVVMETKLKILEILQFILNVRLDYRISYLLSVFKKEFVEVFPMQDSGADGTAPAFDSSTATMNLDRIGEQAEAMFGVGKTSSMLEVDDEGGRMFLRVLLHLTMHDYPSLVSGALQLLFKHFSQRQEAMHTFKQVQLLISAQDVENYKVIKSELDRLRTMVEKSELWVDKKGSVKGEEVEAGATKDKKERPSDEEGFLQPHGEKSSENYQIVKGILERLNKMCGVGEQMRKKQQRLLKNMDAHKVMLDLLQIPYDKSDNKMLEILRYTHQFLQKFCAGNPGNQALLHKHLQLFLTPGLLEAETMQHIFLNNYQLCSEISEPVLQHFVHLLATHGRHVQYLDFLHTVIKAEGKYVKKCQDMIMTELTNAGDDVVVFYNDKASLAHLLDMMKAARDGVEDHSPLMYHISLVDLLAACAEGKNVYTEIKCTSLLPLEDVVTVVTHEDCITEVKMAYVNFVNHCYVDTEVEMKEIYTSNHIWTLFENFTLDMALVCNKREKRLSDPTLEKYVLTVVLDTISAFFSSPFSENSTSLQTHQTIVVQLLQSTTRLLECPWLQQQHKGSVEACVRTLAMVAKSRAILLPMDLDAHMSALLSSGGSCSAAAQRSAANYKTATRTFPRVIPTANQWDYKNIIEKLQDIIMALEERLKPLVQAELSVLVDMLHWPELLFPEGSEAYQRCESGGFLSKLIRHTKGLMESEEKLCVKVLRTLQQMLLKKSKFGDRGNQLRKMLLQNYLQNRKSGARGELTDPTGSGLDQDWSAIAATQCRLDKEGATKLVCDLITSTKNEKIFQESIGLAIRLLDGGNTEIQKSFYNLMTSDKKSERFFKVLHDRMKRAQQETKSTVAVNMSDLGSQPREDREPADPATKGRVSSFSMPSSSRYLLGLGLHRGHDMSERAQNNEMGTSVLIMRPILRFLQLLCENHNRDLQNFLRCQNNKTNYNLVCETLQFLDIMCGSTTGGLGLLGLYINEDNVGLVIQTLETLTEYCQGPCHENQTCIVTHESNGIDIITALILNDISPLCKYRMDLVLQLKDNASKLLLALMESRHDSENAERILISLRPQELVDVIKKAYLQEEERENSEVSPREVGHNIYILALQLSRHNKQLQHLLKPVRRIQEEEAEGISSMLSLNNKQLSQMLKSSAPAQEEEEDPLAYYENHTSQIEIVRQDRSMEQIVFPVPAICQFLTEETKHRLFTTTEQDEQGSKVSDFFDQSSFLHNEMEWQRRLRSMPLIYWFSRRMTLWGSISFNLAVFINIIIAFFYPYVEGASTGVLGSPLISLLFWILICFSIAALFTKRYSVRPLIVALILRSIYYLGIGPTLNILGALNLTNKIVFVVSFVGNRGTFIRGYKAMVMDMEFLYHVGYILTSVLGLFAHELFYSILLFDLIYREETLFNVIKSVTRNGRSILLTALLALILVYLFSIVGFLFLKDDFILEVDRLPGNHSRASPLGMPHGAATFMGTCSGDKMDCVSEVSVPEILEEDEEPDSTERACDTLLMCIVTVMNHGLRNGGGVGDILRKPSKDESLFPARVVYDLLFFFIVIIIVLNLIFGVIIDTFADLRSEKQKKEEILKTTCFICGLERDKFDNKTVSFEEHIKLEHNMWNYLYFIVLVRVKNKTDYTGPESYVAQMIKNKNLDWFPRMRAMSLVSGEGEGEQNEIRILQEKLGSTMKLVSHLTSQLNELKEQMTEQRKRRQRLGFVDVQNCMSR
UniProt P29994, 2571-2606: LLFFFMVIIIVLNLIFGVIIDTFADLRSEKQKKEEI
UniProt Q9D4H1, whole entry: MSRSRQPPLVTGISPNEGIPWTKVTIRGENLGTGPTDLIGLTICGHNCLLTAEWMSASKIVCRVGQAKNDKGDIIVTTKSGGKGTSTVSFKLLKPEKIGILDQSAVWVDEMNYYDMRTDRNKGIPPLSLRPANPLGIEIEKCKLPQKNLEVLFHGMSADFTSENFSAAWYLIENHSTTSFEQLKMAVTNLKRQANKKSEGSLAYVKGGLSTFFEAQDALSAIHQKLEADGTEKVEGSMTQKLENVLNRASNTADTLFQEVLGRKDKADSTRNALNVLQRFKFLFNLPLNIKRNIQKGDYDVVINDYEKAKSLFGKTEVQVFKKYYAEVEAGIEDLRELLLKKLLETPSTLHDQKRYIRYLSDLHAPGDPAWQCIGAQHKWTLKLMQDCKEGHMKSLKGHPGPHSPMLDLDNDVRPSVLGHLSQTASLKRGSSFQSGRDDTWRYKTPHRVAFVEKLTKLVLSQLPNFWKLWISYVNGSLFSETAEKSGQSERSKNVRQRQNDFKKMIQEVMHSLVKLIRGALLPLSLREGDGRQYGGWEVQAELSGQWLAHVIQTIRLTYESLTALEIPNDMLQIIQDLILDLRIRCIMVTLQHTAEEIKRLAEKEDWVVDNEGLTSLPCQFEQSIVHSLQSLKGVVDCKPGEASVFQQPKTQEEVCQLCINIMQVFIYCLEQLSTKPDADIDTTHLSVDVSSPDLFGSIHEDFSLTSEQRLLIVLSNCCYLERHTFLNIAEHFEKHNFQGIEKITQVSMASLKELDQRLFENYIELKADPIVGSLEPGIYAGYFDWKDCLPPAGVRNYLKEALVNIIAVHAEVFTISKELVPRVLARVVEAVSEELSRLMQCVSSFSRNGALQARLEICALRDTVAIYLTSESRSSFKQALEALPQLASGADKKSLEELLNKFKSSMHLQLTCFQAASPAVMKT
UniProt Q96KP1, 1-440: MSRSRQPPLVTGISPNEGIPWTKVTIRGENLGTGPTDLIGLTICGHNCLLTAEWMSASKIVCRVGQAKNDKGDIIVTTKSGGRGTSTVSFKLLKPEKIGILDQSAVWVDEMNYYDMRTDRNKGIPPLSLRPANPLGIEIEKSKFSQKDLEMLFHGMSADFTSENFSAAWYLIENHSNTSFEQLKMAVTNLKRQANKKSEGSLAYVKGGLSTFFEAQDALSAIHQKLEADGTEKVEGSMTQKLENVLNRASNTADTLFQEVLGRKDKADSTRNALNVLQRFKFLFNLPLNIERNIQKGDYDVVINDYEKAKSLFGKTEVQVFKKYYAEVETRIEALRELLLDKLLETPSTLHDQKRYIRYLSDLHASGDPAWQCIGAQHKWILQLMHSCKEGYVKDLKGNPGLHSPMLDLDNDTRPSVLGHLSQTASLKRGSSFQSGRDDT

Experiments:
[1] = target: inositol 1,4,5-trisphosphate receptor type 3 (InsP3R3), endogenous mouse protein (mouse (endogenous in RAW264.7 and BMDM)) (UniProt P70227); assay: FRET or BRET; acceptor photobleaching FRET by confocal microscopy on immunostained BMDM cells; donor Alexa Fluor 488, acceptor Cy3; co-localised regions against non-co-localised regions
[2] = target: inositol 1,4,5-trisphosphate receptor type 3 (InsP3R3), endogenous mouse protein (mouse (endogenous in RAW264.7 and BMDM)) (UniProt P70227); assay: co-IP; endogenous proteins in RAW264.7 lysates (1x DPBS, 1% Triton X-100), cells stimulated with C. albicans (MOI = 10) or not; antibodies (anti-InsP3R1, anti-InsP3R3, anti-SEC5 or control rabbit IgG) on protein G agarose, 2 h; western blot
[3] = target: inositol 1,4,5-trisphosphate receptor type 1 (InsP3R1), endogenous mouse protein (mouse (endogenous in RAW264.7)) (UniProt P11881); assay: as above
[4] = target: GST-InsP3R-H1 (GST fusion of the C-terminal α-helix H1 of rat type 1 InsP3R) (rat) (UniProt P29994); assay: pull-down; 20 μg GST fusion protein bound to beads with RAW264.7 lysate (1x DPBS, 1% Triton X-100, 0.5-1 mg/ml protein, 1 ml), 4°C, 2 h; cells stimulated with C. albicans (MOI = 10) or not; western blot; only the target purified
[5] = target: exocyst complex component 2 (SEC5), endogenous mouse protein (mouse (endogenous in RAW264.7, BMDM and mouse brain)) (UniProt Q9D4H1); assay: co-IP; endogenous proteins in RAW264.7 lysates (1x DPBS, 1% Triton X-100), cells stimulated with C. albicans (MOI = 10) or not; antibodies (anti-InsP3R1, anti-InsP3R3, anti-SEC5 or control rabbit IgG) on protein G agarose, 2 h; western blot
[6] = target: His-SEC5-N (N-terminus of SEC5, aa 1-440) (human) (UniProt Q96KP1); assay: co-IP; immunoprecipitation with purified V5-TBK1 and purified His-SEC5-N (aa 1-440) in the presence of H1-TAT or H1S-TAT peptides; both purified

Q: For “exocyst complex component 2 (SEC5), endogenous mouse protein (from UniProt Q9D4H1 1-924)”, which binding [1] is on record?
A: binds

Q: What about the binding [2] of the same molecule?
A: binds

Q: And the binding [3]?
A: binds

Q: And the binding [4]?
A: binds

Q: How did the binding [5] turn out when “inositol 1,4,5-trisphosphate receptor type 3 (InsP3R3), endogenous mouse protein (from UniProt P70227 1-2670)” was run?
A: binds

B1: V5-TBK1 (enzyme, UniProt Q9UHD2 1-729)
chain: MQSTSNHLWLLSDILGQGATANVFRGRHKKTGDLFAIKVFNNISFLRPVDVQMREFEVLKKLNHKNIVKLFAIEEETTTRHKVLIMEFCPCGSLYTVLEEPSNAYGLPESEFLIVLRDVVGGMNHLRENGIVHRDIKPGNIMRVIGEDGQSVYKLTDFGAARELEDDEQFVSLYGTEEYLHPDMYERAVLRKDHQKKYGATVDLWSIGVTFYHAATGSLPFRPFEGPRRNKEVMYKIITGKPSGAISGVQKAENGPIDWSGDMPVSCSLSRGLQVLLTPVLANILEADQEKCWGFDQFFAETSDILHRMVIHVFSLQQMTAHKIYIHSYNTATIFHELVYKQTKIISSNQELIYEGRRLVLEPGRLAQHFPKTTEENPIFVVSREPLNTIGLIYEKISLPKVHPRYDLDGDASMAKAITGVVCYACRIASTLLLYQELMRKGIRWLIELIKDDYNETVHKKTEVVITLDFCIRNIEKTVKVYEKLMKINLEAAELGEISDIHTKLLRLSSSQGTIETSLQDIDSRLSPGGSLADAWAHQEGTHPKDRNVEKLQVLLNCMTEIYYQFKKDKAERRLAYNEEQIHKFDKQKLYYHATKAMTHFTDECVKKYEAFLNKSEEWIRKMLHLRKQLLSLTNQCFDIEEEVSKYQEYTNELQETLPQKMFTASSGIKHTMTPIYPSSNTLVEMTLGMKKLKEEMEGVVKELAENNHILERFGSLTMDGGLRNVDCL
Q: With B1 as the molecule, how does the binding [6] read?
A: binds
